{"source": "patent US9585896B2", "about": "“Compositions comprising omega-3 fatty acids and vitamin D for psoriasis, and methods and uses thereof” (PRONOVA BIOPHARMA NORGE AS, priority 2012, dated 2017)", "origin": "cited, not measured here", "test_system": "LPS-mediated PI3K, Akt, and NF-kappaB activation, IL-18 induction and IL-18 signaling", "conditions": "in vivo, autoimmune prone (NZB×NZW)F1 mice, compared with EPA", "note": "At least one compound was matched to its structure with a doubt left.", "data": [{"smiles": "CC/C=C\\C/C=C\\C/C=C\\C/C=C\\C/C=C\\C/C=C\\CCC(=O)O", "note": "[DHA, docosahexaenoic acid]", "values": [{"measurement": "reducing LPS-mediated PI3K, Akt, and NF-kappaB activation, IL-18 induction and IL-18 signaling", "result": "superior to EPA"}]}]}
